Where a name gives a salt, the structure may show the parent alone. The list shows a part of the results. Single values are uncertain here, since repeats match poorly.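 The human kidney-derived cells carry a stably integrated construct of eight TEAD-binding elements driving luciferase, read by luminescence in a drug-repurposing library screen. A compound counts as a hit when its signal is more than five robust Z scores above the plate mean.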
Tested on: HEK293A TEAD-LUC reporter
Test: TEAD-luciferase reporter activity (YAP activation), robust Z score vs plate; higher = stronger YAP/TEAD activation
Conditions: 24 h

Compound	TEAD-luciferase reporter activity (compound concentration: 2 uM)	TEAD-luciferase reporter activity (compound concentration: 200 nM)	TEAD-luciferase reporter activity (compound concentration: 10 uM)
CC[C@@H](CO)NC(=O)[C@@H]1C=C2c3cccc4[nH]cc(c34)C[C@H]2N(C)C1 [Methylergonovine maleate]	inactive: -0.0251		
CC[C@@H](CO)NC(=O)[C@@H]1C=C2c3cccc4[nH]cc(c34)C[C@H]2N(C)C1		inactive: 0.786	inactive: 2.03
CCOP(=O)(OCC)OCC	inactive: 0.546	inactive: -0.578	inactive: -1.19
CCCN(CCC)C1CCc2cccc(-c3ccno3)c2C1 (configuration not stated)	inactive: -0.639	inactive: -0.855	inactive: 0.0313
O=c1ccc2cccc(N3CCNCC3)c2o1 [batoprazine]	inactive: -1.35	inactive: -0.967	inactive: -1.51
NC(=O)OCC(F)(COC(N)=O)c1ccccc1	inactive: -0.766	inactive: -1.32	inactive: 2.63
O=C([O-])C(F)(F)C(F)(F)C(F)(F)C(F)(F)C(F)(F)C(F)(F)C(F)(F)F [Ammonium pentadecafluorooctanoate]	inactive: 1.78	inactive: -0.983	inactive: 1.29
CNCC(O)c1ccc(O)cc1 (configuration not stated) [Synephrine]	inactive: -1.22		
CNCC(O)c1ccc(O)cc1 (configuration not stated)		inactive: -1.1	inactive: 0.018
CCOC(=O)c1ncc2[nH]c3cccc(OCc4ccccc4)c3c2c1COC	inactive: -0.359	inactive: 1.24	inactive: -1.1
C=CC1CCC2OC2C1 (configuration not stated)	inactive: -1.02	inactive: -2.51	inactive: -1.17
CC1=C2C[C@H]3[C@@H](CC=C4CC(O)CCC43C)[C@@H]2CC[C@]12O[C@@H]1CC(C)CN[C@H]1[C@H]2C (some centres not stated)	inactive: -0.302	inactive: -0.409	inactive: -0.242
CC1(O)C=C[C@]2(C)C3CC[C@@]4(C)C(CC[C@@H]4O)C3CC[C@@]2(C)C1 (some centres not stated)	inactive: 0.109	active: 5.37	inactive: 0.593
CCN1C[C@]2(COC)CC[C@H](OC)[C@]34C1[C@@H]([C@H](OC)[C@H]23)[C@@]1(OC(C)=O)C[C@H](OC)[C@@]2(O)C[C@@H]4[C@@H]1[C@H]2C(=O)c1ccc(OC)cc1	inactive: -0.244	inactive: -0.854	inactive: -0.549
Cc1cccc(C)c1NC1=NCCCS1 [Xylazine HCl]		inactive: -3.02	inactive: 4.99
Cc1cccc(C)c1NC1=NCCCS1	inactive: -0.414		
C[C@@H]1C[C@@H]([C@H](O)CC2CC(=O)NC(=O)C2)C(=O)[C@@H](C)C1 [Cycloheximide]	inactive: -0.419	inactive: -2.44	inactive: 2.84
C[C@@H](N)C(=O)N[C@@H](CO)C(=O)N[C@H](C(=O)N[C@H](C(=O)N[C@H](C(=O)N[C@@H](CC(N)=O)C(=O)N[C@@H](Cc1ccc(O)cc1)C(=O)N[C@H](C(N)=O)[C@@H](C)O)[C@@H](C)O)[C@@H](C)O)[C@@H](C)O	inactive: -2.1	inactive: -1.44	inactive: -0.89
C[C@]12CCC(=O)C=C1CC[C@@H]1[C@@H]2CC[C@]2(C)OC(=O)CC[C@@H]12 [Testololactone]	inactive: -1.06	inactive: 0.657	inactive: 0.93

Record cards (already shown):
NC(=O)OCC(F)(COC(N)=O)c1ccccc1 as listed: TEAD-luciferase reporter activity (compound concentration: 2 uM): inactive: -0.766; TEAD-luciferase reporter activity (compound concentration: 200 nM): inactive: -1.32; TEAD-luciferase reporter activity (compound concentration: 10 uM): inactive: 2.63
CC[C@@H](CO)NC(=O)[C@@H]1C=C2c3cccc4[nH]cc(c34)C[C@H]2N(C)C1 as listed: TEAD-luciferase reporter activity (compound concentration: 200 nM): inactive: 0.786; TEAD-luciferase reporter activity (compound concentration: 10 uM): inactive: 2.03

(further entries)

Compound	TEAD-luciferase reporter activity (compound concentration: 2 uM)	TEAD-luciferase reporter activity (compound concentration: 200 nM)	TEAD-luciferase reporter activity (compound concentration: 10 uM)
CC(C(=O)c1ccccc1)N(C)C (configuration not stated)	inactive: -0.648	inactive: -1.15	inactive: -0.899
CC(Cc1ccccc1)NCCCCl (configuration not stated)	inactive: -0.97	inactive: -0.686	inactive: -0.383
CC(=O)O[C@H]1CC[C@H]2[C@@H]3CC[C@H]4CC(=O)C=C(C)[C@]4(C)[C@H]3CC[C@]12C	inactive: 0.468	inactive: -0.38	inactive: 0.35
CC(Cc1ccc(O)cc1)NCC(O)c1cc(N)cc(CO)c1 (configuration not stated)	inactive: -0.494	inactive: -0.388	inactive: -0.0287
[Cl][Hg][Cl]	inactive: 0.113	inactive: 0.367	inactive: -0.252
CCC(=O)O[C@@H]1C=C2CCC3C(CCC4(C)C3CC[C@@H]4OC(=O)CC)C2CC1 (some centres not stated)	inactive: -2.11	inactive: -0.636	inactive: -0.381
COC(C(=O)OC(C)CN(C)C)(c1ccccc1)c1ccccc1 (configuration not stated)	inactive: -0.151	inactive: 3.17	inactive: 3.33
CC(=O)O[C@H]1CC[C@]2(C)C3C(CC[C@@H]2C1)[C@@]1(O)CC[C@H](c2ccc(=O)oc2)[C@@]1(C)C[C@H]3OC(C)=O (some centres not stated) [Gamabutotalin, Derivative of]	inactive: 1.28	inactive: -0.611	inactive: 0.493
CC(C)NC(=O)CNC(=O)[C@@H](Cc1ccccc1)N(C)C(=O)CNC(=O)[C@@H](C)NC(=O)[C@@H](N)Cc1ccc(O)cc1	inactive: -0.795	inactive: -1.05	inactive: -1.82
CC(C)C(Br)C(=O)NC(N)=O (configuration not stated)	inactive: 1.89	inactive: -0.462	inactive: -1.23
CCOc1cccc(c1)[C@@]1(CCC(CC1)C)N1CCN(CC1)c1ccccc1 (configuration not stated)	inactive: -0.682	inactive: 1.01	inactive: -0.67
CC(C)c1c(CN(C)C(C)Cc2ccccc2)n(C)n(-c2ccccc2)c1=O (configuration not stated)	inactive: 2.91	inactive: -0.175	inactive: 0.0461
Nc1ncnc2c1ccn2[C@@H]1O[C@H](CO)[C@@H](O)[C@H]1O	active: 5.19	inactive: -0.686	inactive: 1.51
Cn1c(COP(=O)(NCCBr)NCCBr)cnc1[N+](=O)[O-] [Evofosfamide]	inactive: -0.332	inactive: 0.357	inactive: 0.723
COc1ccc2c(c1OC)C(=O)O[C@@H]2[C@H]1c2cc3c(cc2CCN1C)OCO3	inactive: -2.01	inactive: -0.283	inactive: 1.7
COc1ccc(C[C@H]2NC[C@H](O)[C@H]2OC(C)=O)cc1	inactive: -3.08	inactive: 0.45	inactive: -1.85
C[N+]1(CC2CC2)[C@@H]2C[C@@H](OC(=O)[C@H](CO)c3ccccc3)C[C@H]1[C@@H]1O[C@@H]12 (some centres not stated) [Cimetropium bromide]	inactive: -0.97	inactive: -0.938	inactive: -0.0482
CN1CCCN/C1=C\OC(=O)C(O)(c1ccccc1)C1CCCCC1 (configuration not stated)	inactive: 2.91	inactive: -0.424	inactive: -1.29
O=S1(=O)[O][Pt]2([NH]CC3(CCCCC3)C[NH]2)[O]1 [spiroplatin]	inactive: -0.788		inactive: 0.372

Compound	TEAD-luciferase reporter activity (compound concentration: 2 uM)	TEAD-luciferase reporter activity (compound concentration: 200 nM)	TEAD-luciferase reporter activity (compound concentration: 10 uM)
C[C@]12COC(=O)C[C@@H]1CC[C@@H]1[C@@H]2CC[C@@]2(C)[C@H]1CC[C@]2(C)O [Oxandrolone]	inactive: -1.41	inactive: 0.176	inactive: 3.27
CN[C@@H](CCOc1ccc([N+](=O)[O-])cc1)c1ccc(OC(=O)N(C)C)cc1	inactive: 0.623	inactive: -0.731	inactive: 1.19
CCCC(=O)O[C@H]1CN2CC[C@H](O)[C@@H]2[C@@H](O)[C@@H]1O [Celgosivir]	inactive: 1.03	inactive: 1.62	inactive: 0.891
CCC(Sc1ccccc1)C(=O)O[C@@H]1C[C@H]2CC[C@@H](C1)N2C (some centres not stated)	inactive: 1.27	inactive: 1.1	inactive: 0.191
COC(=O)c1ccc(CC(C)NCC(O)c2ccccc2)cc1 (configuration not stated)	inactive: -1.09	inactive: -0.996	inactive: 2.37
C[C@H](Cc1ccc(OCC(=O)O)cc1)NC[C@H](O)c1csc(C(F)(F)F)n1	inactive: -0.311	inactive: 0.345	inactive: 0.326
COc1cccc2c1C(=O)c1c(O)c3c(c(O)c1C2=O)C[C@@](O)(C(C)O)C[C@@H]3OC1CC(N)C(O)C(C)O1 (some centres not stated)	inactive: -0.122	inactive: -0.985	inactive: 3.19
CO[C@H](C)[C@](O)(C(=O)OCC1=CCN2CC[C@H](O)[C@@H]12)C(C)C	inactive: 1.03	inactive: 0.99	inactive: -1.46
CCC1=C[C@H]2CN(CCc3c([nH]c4ccccc34)[C@@](C(=O)OC)(c3cc4c(cc3OC)N(C)[C@H]3[C@@](O)(C(=O)OC)[C@H](OC(C)=O)[C@]5(CC)C=CCN6CC[C@]43[C@@H]65)C2)C1 [anhydrovinblastine]	inactive: 1.85	inactive: 1.55	active: 13.6
NC[C@@H](F)C[PH](=O)O [Lesogaberan]	inactive: -0.345	inactive: -0.303	inactive: -0.468
CCOC(=O)c1cncn1C(C)c1ccccc1 (configuration not stated) [etomidate]	inactive: -0.207		
CCOC(=O)c1cncn1C(C)c1ccccc1 (configuration not stated) [Etomidate]		inactive: 2.21	inactive: -1.77
CC(C)NCC(O)c1ccccc1Cl (configuration not stated)	inactive: -1.3		
CC(C)NCC(O)c1ccccc1Cl (configuration not stated) [Clorprenaline hydrochloride]		inactive: -0.825	inactive: -0.51
C[C@H]1CNCCc2ccc(Cl)cc21 [Lorcaserin hydrochloride]	inactive: -1.99	inactive: -1.42	inactive: -0.717
COc1ccc2c(c1)[C@]13CCCC[C@@H]1[C@H](C2)N(C)CC3 [Dextromethorphan HBr]	inactive: 2.18	inactive: -0.637	inactive: 2.65
C1=C(c2ccccc2)CCN(CC2CCC=C(c3ccccc3)C2)C1 (configuration not stated)	inactive: 0.862	inactive: -1.26	inactive: 1.54
CCC(C)C(NC(=O)C(CCCNC(=N)N)NC(=O)C(CCCNC(=N)N)NC(=O)C(CC(C)C)NC(=O)C(Cc1ccccc1)NC(=O)CNC(=O)CNC(=O)C(N)Cc1ccc(O)cc1)C(=O)NC(CCCNC(=N)N)C(=O)N1CCCC1C(=O)NC(CCCCN)C(=O)NC(CC(C)C)C(=O)NC(CCCCN)C(=O)O (configuration not stated) [Dynorphin A1-13]	inactive: 0.136	inactive: -1.17	inactive: 0.0213
